Experimental data taken from PMC7819943, “Rice protein-binding microarrays: a tool to detect cis-acting elements near promoter regions in rice”.
The other results are listed elsewhere or left out.

Amino acid sequences for entries named in this document (tags omitted).
UniProt Q0JBA9, entry or part of it: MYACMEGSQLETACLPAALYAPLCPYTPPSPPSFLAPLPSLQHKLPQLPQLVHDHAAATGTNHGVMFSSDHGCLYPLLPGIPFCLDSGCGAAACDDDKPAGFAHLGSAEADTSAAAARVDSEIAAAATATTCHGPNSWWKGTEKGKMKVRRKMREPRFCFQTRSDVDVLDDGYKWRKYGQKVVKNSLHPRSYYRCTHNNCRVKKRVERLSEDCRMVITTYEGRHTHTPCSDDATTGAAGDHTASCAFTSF

Molecular target: OsWRKY34 (Oryza sativa, UniProt Q0JBA9 1-250)
Test: protein-binding microarray (RPBM); PBS, 2% BSA, 51.3 ng/ul salmon testes DNA, 50 uM zinc acetate, 200 nM TF, 25 C, 1 h; high values mean tight binding
Settings: protein: recombinant; tags: N-terminal polyhistidine and DsRed monomer fusion (pET32a); label: CyDye5-dUTP incorporated in the synthesized complementary strand; 3' TTTTT single-stranded linker to array surface; dsDNA, one strand shown
Summary of the method: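 Transcription factors were made in E. coli BL21-CodonPlus as N-terminal fusions to a polyhistidine tag and DsRed, then purified on Ni–NTA. After primer extension with Cy5-dUTP and blocking with 2% BSA, a custom Agilent array was exposed for 1 h at 25 °C to 200 nM protein in PBS, 2% BSA, salmon testes DNA and 50 µM zinc acetate. Washed arrays were scanned on an Axon 4000B, and the binding signal is per-feature fluorescence intensity in arbitrary units.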

| Sequence | binding signal |
| --- | --- |
| CCCGTCGCGTCACTGCCTCTCGCGACTGCATTTAAATTCACGGAGTCACCTAGTGCAG | 9040 fluorescence intensity (a.u.) |
| GTTGGTGGGTGCAGGGGTGCGACGCGTCGGTGCTGATCGACGGAGTCACCTAGTGCAG | 9160 fluorescence intensity (a.u.) |
| TTTGGCACACCTCTCTAACACCTACTCTTCCAGCTTTTAACGGAGTCACCTAGTGCAG | 8160 fluorescence intensity (a.u.) |
| GGTTGGCGCGGCCGACCCACCGTCCCACTCCCACATGCCACGGAGTCACCTAGTGCAG | 9220 fluorescence intensity (a.u.) |
| CCGTCGTCTTCGTTCCAGAGATCCTCGGCGCCGGGCAAGACGGAGTCACCTAGTGCAG | 8520 fluorescence intensity (a.u.) |
| ATAATGTGGTTGTTTCCGAAGGTGAAGGTTAGGCATATATCGGAGTCACCTAGTGCAG | 8840 fluorescence intensity (a.u.) |
| AAACAATTTAGTCAGGTTCTTGGATTCATTTCTCATTATTCGGAGTCACCTAGTGCAG | 10400 fluorescence intensity (a.u.) |
| TCTTTTTTTTTTTCATTATTGTTTGAATATTGATTTCACACGGAGTCACCTAGTGCAG | 8780 fluorescence intensity (a.u.) |
| TTCCCCACGTACCTCTCCATCTCGTCCAGCTTGTAGTTGTCGGAGTCACCTAGTGCAG | 8790 fluorescence intensity (a.u.) |
| GATTGTATATGCCTGATAGGACTAGTTAGTGTGTTTTCTTCGGAGTCACCTAGTGCAG | 9220 fluorescence intensity (a.u.) |
| TTTCATTATACATATAGTTTTACATATTTCACAAAATTTTCGGAGTCACCTAGTGCAG | 8770 fluorescence intensity (a.u.) |
| CACCCGGCCAGCCACACACACACAGAAACAGCTCGAGATCCGGAGTCACCTAGTGCAG | 8510 fluorescence intensity (a.u.) |
| CTGGCCGCTATTTTATCTAATGTCAATTCTCCTATATCTACGGAGTCACCTAGTGCAG | 11000 fluorescence intensity (a.u.) |
| CCCACGCGTTCCACCCTGATCCTTTGCACTTCCGCGACCTCGGAGTCACCTAGTGCAG | 10800 fluorescence intensity (a.u.) |
| GCCAAGCCTTTTTCTTCTACTCTTTTTGGCATGGAACTCACGGAGTCACCTAGTGCAG | 8350 fluorescence intensity (a.u.) |
| GGACGGTTGATTCTCCTGCTTGTCTCGCTCGACCGCCGACCGGAGTCACCTAGTGCAG | 8450 fluorescence intensity (a.u.) |
| TCATCCGATTCCTATGTTTTTCCTGCGCTCCAATCAAACACGGAGTCACCTAGTGCAG | 12000 fluorescence intensity (a.u.) |
| GGCGCTGCAGCACGTACGTGGTTGGTTGGTTGGTTGGTTGCGGAGTCACCTAGTGCAG | 15300 fluorescence intensity (a.u.) |
| GTCTTTATCCAACATGACAGCTACTTCCTCCGTTTCATAACGGAGTCACCTAGTGCAG | 8070 fluorescence intensity (a.u.) |
| CATGTTTTACGTAAATTGATCAATATTGTGTAGCATCATACGGAGTCACCTAGTGCAG | 8100 fluorescence intensity (a.u.) |
| GGGTTCACCACCAAACTCGCCACCTATAAACGCTCCTCGCCGGAGTCACCTAGTGCAG | 9030 fluorescence intensity (a.u.) |

A second format for part of the listing above:
Sequence | binding signal
CCGTCGTCTTCGTTCCAGAGATCCTCGGCGCCGGGCAAGACGGAGTCACCTAGTGCAG | 8520 fluorescence intensity (a.u.)
ATAATGTGGTTGTTTCCGAAGGTGAAGGTTAGGCATATATCGGAGTCACCTAGTGCAG | 8840 fluorescence intensity (a.u.)
AAACAATTTAGTCAGGTTCTTGGATTCATTTCTCATTATTCGGAGTCACCTAGTGCAG | 10400 fluorescence intensity (a.u.)
TCTTTTTTTTTTTCATTATTGTTTGAATATTGATTTCACACGGAGTCACCTAGTGCAG | 8780 fluorescence intensity (a.u.)
TTCCCCACGTACCTCTCCATCTCGTCCAGCTTGTAGTTGTCGGAGTCACCTAGTGCAG | 8790 fluorescence intensity (a.u.)
GATTGTATATGCCTGATAGGACTAGTTAGTGTGTTTTCTTCGGAGTCACCTAGTGCAG | 9220 fluorescence intensity (a.u.)
TTTCATTATACATATAGTTTTACATATTTCACAAAATTTTCGGAGTCACCTAGTGCAG | 8770 fluorescence intensity (a.u.)
CACCCGGCCAGCCACACACACACAGAAACAGCTCGAGATCCGGAGTCACCTAGTGCAG | 8510 fluorescence intensity (a.u.)
CTGGCCGCTATTTTATCTAATGTCAATTCTCCTATATCTACGGAGTCACCTAGTGCAG | 11000 fluorescence intensity (a.u.)
CCCACGCGTTCCACCCTGATCCTTTGCACTTCCGCGACCTCGGAGTCACCTAGTGCAG | 10800 fluorescence intensity (a.u.)
GCCAAGCCTTTTTCTTCTACTCTTTTTGGCATGGAACTCACGGAGTCACCTAGTGCAG | 8350 fluorescence intensity (a.u.)

More results follow:

| Sequence | binding signal |
| --- | --- |
| CTCCGCCGCCTCCCGTATAACTGCGCCTTCGTCTCCGGCCCGGAGTCACCTAGTGCAG | 11100 fluorescence intensity (a.u.) |
| ACTGAACTGAGAACTGTCCCACCATCATTGTCGCCAGAATCGGAGTCACCTAGTGCAG | 9350 fluorescence intensity (a.u.) |
| TTCCCCTTCTACGCTCTCGCATTTGCCATTTCTTTTTTCGCGGAGTCACCTAGTGCAG | 8110 fluorescence intensity (a.u.) |
| CTCCTACTGTATTTCTCTACAAGATTGACCACCTTAATACCGGAGTCACCTAGTGCAG | 8600 fluorescence intensity (a.u.) |
| ACAACAAATACCTCGATCTCGATCTGTTACTTTCTCGTGACGGAGTCACCTAGTGCAG | 8300 fluorescence intensity (a.u.) |
| GATTGTCGTCCTCTTCGGCTCCCATACCGCCGACAACACCCGGAGTCACCTAGTGCAG | 8130 fluorescence intensity (a.u.) |
| GTGTGGGTGGCAGGGTGTGTTGAGGAGGTGCCCGCGTTGCCGGAGTCACCTAGTGCAG | 10300 fluorescence intensity (a.u.) |
| TTTACGACCAACTGCAAATTCGATCTCCGTCCATCGATATCGGAGTCACCTAGTGCAG | 9180 fluorescence intensity (a.u.) |
| TTATAATTATTTGTGTTGCAATGTATGTTTTGTTTATATACGGAGTCACCTAGTGCAG | 8540 fluorescence intensity (a.u.) |
| ATTTTTTTCCTTTCAGTGCTTTCACAGCTTCATTTTGCAACGGAGTCACCTAGTGCAG | 8050 fluorescence intensity (a.u.) |
| GCAACTGATAGACTAACTTGTCCGGTCCTGTTTTGGAATCCGGAGTCACCTAGTGCAG | 10200 fluorescence intensity (a.u.) |
| ACCATGAGGTCTACCCACCTGCGCCCCTACCGCTCAATTCCGGAGTCACCTAGTGCAG | 8320 fluorescence intensity (a.u.) |
| GCACGTCCACCAACAAATATTTGTCTTGTTCATCTGTCCTCGGAGTCACCTAGTGCAG | 13500 fluorescence intensity (a.u.) |
| TGCACCGAGTCCCGGGGTCATTCTCCCGTTGTGTTTGTTGCGGAGTCACCTAGTGCAG | 8590 fluorescence intensity (a.u.) |
| GCATCTCTCTCGGCCTCTAGACTTTCTTTTTGGGCCTGAACGGAGTCACCTAGTGCAG | 9600 fluorescence intensity (a.u.) |
| GCTCAAACCTGGACCTGTTTGATCATGGCGTCAGTGCACACGGAGTCACCTAGTGCAG | 8360 fluorescence intensity (a.u.) |
| ATCTCTTAACCTTTTTCTTATTACCAAACATGCTAACGGTCGGAGTCACCTAGTGCAG | 8030 fluorescence intensity (a.u.) |
| TTTTGTTTCCGACTTTATCGTTTCCAATTTCGTTTCCAAGCGGAGTCACCTAGTGCAG | 9580 fluorescence intensity (a.u.) |
| TTCAGTTTGTCAGATCATCTGTCCTTCTACCTTCTTTGCACGGAGTCACCTAGTGCAG | 8600 fluorescence intensity (a.u.) |
| CACCTCCGTTCCATGAGCTCCACACTCATCATCCACAGCACGGAGTCACCTAGTGCAG | 9230 fluorescence intensity (a.u.) |
| ACTCGCTTTCTCTCTCTCGCGTTGCTTCCTACCGAAATCTCGGAGTCACCTAGTGCAG | 14100 fluorescence intensity (a.u.) |
